Results deposited as PubChem BioAssay AID720505 (Drosophila RNAi Screening Center, 2013)
In all, the deposit lists about 20,000 reagents; shown is an unselected part of those that have a named target and a result. Over the whole deposit, about 2,100 (10%) were called active. 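Raw plate signals without normalisation; calls rest on control-based scores that were not deposited; replicate 2 separates called from uncalled poorly.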 A number with no mark means an inactive call. No sequences are given here. The record does not give: the amount of reagent, the time to read-out.

- Screen: 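Knock-downs that reduce calcium influx once internal stores are emptied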 (primary screen)
- Cell system: Drosophila S2R+ cells
- Reagents: long dsRNA against Drosophila genes
- Treatment: thapsigargin (2 µM) in calcium-free buffer to empty internal stores, then 2 mM calcium added back
- Measurement: 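Fluo-4 signal in 384-well plates read on a FLIPR after thapsigargin (2 µM, calcium-free) store depletion and 2 mM calcium add-back; unnormalised mean endpoint per well; screen run twice, selected wells retested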
- Scale: calcium signal: higher = more calcium entry after store depletion
- Hit rule: 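About 1500 genes called as lowering calcium entry, by varying amounts, judged against per-plate control wells with STIM1 as positive and Rho1 as negative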
- Meaning of the calls: active = called as lowering calcium entry; inactive = not called

| Target gene | DRSC id | calcium signal, replicate 1 | calcium signal, replicate 2 |
| --- | --- | --- | --- |
| CG5986 (GeneID 192506) | DRSC15931 | 119 | 262 |
| mTerf5 (GeneID 42182) | DRSC16209 | 156 | 195 |
| CG15260 (GeneID 34899) | DRSC01977 | 111 | 97.4 |
| CG14356 (GeneID 41722) | DRSC14819 | 98.1 | 96 |
| CG14618 (GeneID 33134) | DRSC20631 | 115 | 106 |
| ERp44 (GeneID 32588) | DRSC20215 | 159 | 125 |
| CG10845 (GeneID 42978) | DRSC14272 | 104 | 141 |
| CG32650 (GeneID 326227) | DRSC19899 | 113 | 133 |
| AdoR (GeneID 43583) | DRSC16556 | 181 | 138 |
| strat (GeneID 34142) | DRSC03069 | 171 | 175 |
| CG15128 (GeneID 37263) | DRSC06550 | 209 | 173 |
| CG3777 (GeneID 30979) | DRSC18489 | 182 | 140 |
| ADD1 (GeneID 36278) | DRSC07135 | 177 | 183 |
| U2af38 (GeneID 33201) | DRSC00796 | 54.7 (active) | 191 |
| CG13708 (GeneID 38582) | DRSC08317 | 92.4 | 66.2 |
| CG34324 (GeneID 32302) | DRSC19502 | 116 | 96.3 |
| CG34324 (GeneID 32302) | DRSC23241 | 125 | 164 |
| Pi3K68D (GeneID 39329) | DRSC11253 | 134 | 74.3 |
| CG4360 (GeneID 42413) | DRSC15566 | 128 | 152 |
| CG13527 (GeneID 37615) | DRSC04169 | 114 | 151 |
| ATP6 (retired record) (GeneID 192467) | DRSC21278 | 64.7 (active) | 171 |
| CR14033 (GeneID 10178827) | DRSC02358 | 107 | 180 |

5 successive records already listed:
| Target gene | DRSC id | calcium signal, replicate 1 | calcium signal, replicate 2 |
| --- | --- | --- | --- |
| CG14618 (GeneID 33134) | DRSC20631 | 115 | 106 |
| ERp44 (GeneID 32588) | DRSC20215 | 159 | 125 |
| CG10845 (GeneID 42978) | DRSC14272 | 104 | 141 |
| CG32650 (GeneID 326227) | DRSC19899 | 113 | 133 |
| AdoR (GeneID 43583) | DRSC16556 | 181 | 138 |

Additional records:
| Target gene | DRSC id | calcium signal, replicate 1 | calcium signal, replicate 2 |
| --- | --- | --- | --- |
| CarT (GeneID 35334) | DRSC03196 | 103 | 87.7 |
| CG30281 (GeneID 246525) | DRSC04528 | 137 | 86.3 |
| CG3735 (GeneID 37803) | DRSC04411 | 132 | 91.2 |
| Cpr92A (GeneID 42333) | DRSC16000 | 176 | 141 |
| beat-IIIa (GeneID 35035) | DRSC01575 | 173 | 86 |
| beat-IIIa (GeneID 35035) | DRSC01577 | 151 | 97.4 |
| beat-IIIa (GeneID 35035) | DRSC02178 | 81.5 | 182 |
| Fdx2 (GeneID 38530) | DRSC08306 | 119 | 108 |
| Polr2K (GeneID 5740790) | DRSC05535 | 82.8 | 104 |
| CG7295 (GeneID 33365) | DRSC00699 | 83.8 | 155 |
| CG14326 (GeneID 42120) | DRSC14805 | 120 | 134 |
| CG13297 (GeneID 38711) | DRSC09971 | 111 | 89.2 |
